Assay results reported in publication PMC7389684.
These are yes or no findings as the source states them, for the method shown. In cells and extracts the contact can be indirect. Some results given as binding are weak or reduced against the parent protein; the word gives no strength.

Sequences of proteins named here, by UniProt entry; tags and fusion partners are left off.
UniProt Q14457: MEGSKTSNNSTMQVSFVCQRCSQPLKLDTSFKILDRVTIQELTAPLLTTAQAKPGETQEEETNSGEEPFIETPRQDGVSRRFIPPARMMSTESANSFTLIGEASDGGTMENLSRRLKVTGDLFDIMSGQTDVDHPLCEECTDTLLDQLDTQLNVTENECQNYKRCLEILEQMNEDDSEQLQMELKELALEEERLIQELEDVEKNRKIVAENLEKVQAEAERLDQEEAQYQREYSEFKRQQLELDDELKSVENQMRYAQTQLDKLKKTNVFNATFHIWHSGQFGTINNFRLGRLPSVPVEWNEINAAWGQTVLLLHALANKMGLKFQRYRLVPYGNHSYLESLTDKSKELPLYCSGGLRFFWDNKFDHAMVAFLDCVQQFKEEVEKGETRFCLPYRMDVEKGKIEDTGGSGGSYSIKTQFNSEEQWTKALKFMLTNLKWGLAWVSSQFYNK
UniProt P10415: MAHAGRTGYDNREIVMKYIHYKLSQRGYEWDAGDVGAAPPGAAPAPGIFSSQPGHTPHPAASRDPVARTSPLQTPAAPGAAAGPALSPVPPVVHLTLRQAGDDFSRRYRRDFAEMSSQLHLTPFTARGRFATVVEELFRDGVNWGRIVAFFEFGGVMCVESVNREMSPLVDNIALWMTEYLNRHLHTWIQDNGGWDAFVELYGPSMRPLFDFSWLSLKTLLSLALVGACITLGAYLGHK

Target: Beclin1/BECN1 (human (endogenous in PANC-1)) (UniProt Q14457)
Assay: co-IP; endogenous proteins from PANC-1 lysates in RIPA lysis buffer (50 mM Tris-HCl pH 7.4, 150 mM NaCl, 1% Triton X-100, 10 mM NaF, 1 mM EDTA); primary antibody overnight, protein A/G magnetic beads 2 h at 4 °C, western blot; cells with PVT1 knockdown, PVT1 overexpression, miR-619-5p mimics and/or gemcitabine (1 μM)

binding: binds
Substance: Bcl2 (from UniProt P10415 1-239)
